Source: PubChem BioAssay AID743121 (NCATS, 2013)
Aim: 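Partners whose loss is lethal together with topoisomerase I blockade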 (primary screen). Cell system: MDA-MB-231 cells, a human breast cancer line. Knock-down reagent: single siRNA against human genes, 20 nM siRNA (0.8 pmol per well). Duration: 120 h (drug added 48 h after transfection, read 72 h later). Treatment: camptothecin 20 nM (about EC30) for 72 h; vehicle 0.1% DMSO in parallel plates. Read-out: 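CellTiter-Glo ATP signal, scaled to control siRNA as percent viability; sensitisation given as log2 of untreated divided by camptothecin-treated viability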. Direction: log2 vehicle/camptothecin viability: higher = stronger sensitisation to camptothecin. Rule for the call: 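Active genes have an RSA gene-level p-value below 0.001, computed from the ratios of their separate siRNAs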.
The whole screen tested about 26,000 reagents; this is a part drawn at random. Over the whole deposit, 167 (0.63%) were called active. 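Calls are per gene from RSA p-values that are not deposited; an individual active-marked siRNA can sensitise only weakly.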 The numbers tell different reagents against one gene apart. Further read-outs or replicates are left out here. No sequences are given here.

After knock-down of PEX14 (GeneID 5195) #1, the record shows log2 vehicle/camptothecin viability -0.132; inactive.
PEX14 (GeneID 5195) #2 showed log2 vehicle/camptothecin viability -0.0334; inactive.
Silencing of PEX14 (GeneID 5195) #3 came out at: log2 vehicle/camptothecin viability -0.52; inactive.
PEX14 (GeneID 5195) #4 scored log2 vehicle/camptothecin viability 0.151; inactive.
With knock-down of TMPRSS5 (GeneID 80975) #1, the screen gave log2 vehicle/camptothecin viability -0.379; inactive.
TMPRSS5 (GeneID 80975) #2 scored log2 vehicle/camptothecin viability -0.0516; inactive.
GSTM1 (GeneID 2944) #1 showed log2 vehicle/camptothecin viability -0.0178; inactive.
With knock-down of GSTM1 (GeneID 2944) #2, the screen gave log2 vehicle/camptothecin viability 0.764; inactive.
For GSTM1 (GeneID 2944) #3 the deposit lists log2 vehicle/camptothecin viability 0.0449; inactive.
Against GSTM1 (GeneID 2944) #4, the entry reads log2 vehicle/camptothecin viability 0.201; inactive.
After knock-down of OR2W3 (GeneID 343171) #1 the results were log2 vehicle/camptothecin viability -0.172; inactive.
OR2W3 (GeneID 343171) #2 scored log2 vehicle/camptothecin viability -0.116; inactive.
For OR2W3 (GeneID 343171) #3 the deposit lists log2 vehicle/camptothecin viability 0.279; inactive.
OR2W3 (GeneID 343171) #4 showed log2 vehicle/camptothecin viability -0.39; inactive.
With knock-down of CDH2 (GeneID 1000) #1, the record shows log2 vehicle/camptothecin viability 0.19; inactive.
With knock-down of CDH2 (GeneID 1000) #2, the screen gave log2 vehicle/camptothecin viability -0.324; inactive.
Knock-down of CDH2 (GeneID 1000) #3 resulted in: log2 vehicle/camptothecin viability -0.486; inactive.
PHGDH (GeneID 26227) #1 showed log2 vehicle/camptothecin viability -0.266; inactive.
Depletion of PHGDH (GeneID 26227) #2 came out at: log2 vehicle/camptothecin viability -0.141; inactive.
Knock-down of PHGDH (GeneID 26227) #3 resulted in: log2 vehicle/camptothecin viability 0.169; inactive.
EPAS1 (GeneID 2034) #1 showed log2 vehicle/camptothecin viability 0.022; inactive.
After knock-down of EPAS1 (GeneID 2034) #2, the screen gave log2 vehicle/camptothecin viability -0.568; inactive.
EPAS1 (GeneID 2034) #3 gave log2 vehicle/camptothecin viability -0.249; inactive.
Silencing of EPAS1 (GeneID 2034) #4 resulted in: log2 vehicle/camptothecin viability 0.349; inactive.
